Source: patent US20220389113A1, “BINDING PROTEINS TO CUB DOMAIN-CONTAINING PROTEIN (CDCP1)” (COMMONWEALTH SCIENTIFIC AND INDUSTRIAL RESEARCH ORGANISATION, priority 2019, published 2022)
Results are given in words; binding and its absence hold for the method and conditions named. Some binding calls cover weakened binding; strength is not graded here.

Columns and labels:
[1] = target: T1, human CUB domain-containing protein 1 (CDCP1), expressed by cells (human) (UniProt Q9H5V8); assay: flow cytometry on TKCC05 cells
T1 sequence: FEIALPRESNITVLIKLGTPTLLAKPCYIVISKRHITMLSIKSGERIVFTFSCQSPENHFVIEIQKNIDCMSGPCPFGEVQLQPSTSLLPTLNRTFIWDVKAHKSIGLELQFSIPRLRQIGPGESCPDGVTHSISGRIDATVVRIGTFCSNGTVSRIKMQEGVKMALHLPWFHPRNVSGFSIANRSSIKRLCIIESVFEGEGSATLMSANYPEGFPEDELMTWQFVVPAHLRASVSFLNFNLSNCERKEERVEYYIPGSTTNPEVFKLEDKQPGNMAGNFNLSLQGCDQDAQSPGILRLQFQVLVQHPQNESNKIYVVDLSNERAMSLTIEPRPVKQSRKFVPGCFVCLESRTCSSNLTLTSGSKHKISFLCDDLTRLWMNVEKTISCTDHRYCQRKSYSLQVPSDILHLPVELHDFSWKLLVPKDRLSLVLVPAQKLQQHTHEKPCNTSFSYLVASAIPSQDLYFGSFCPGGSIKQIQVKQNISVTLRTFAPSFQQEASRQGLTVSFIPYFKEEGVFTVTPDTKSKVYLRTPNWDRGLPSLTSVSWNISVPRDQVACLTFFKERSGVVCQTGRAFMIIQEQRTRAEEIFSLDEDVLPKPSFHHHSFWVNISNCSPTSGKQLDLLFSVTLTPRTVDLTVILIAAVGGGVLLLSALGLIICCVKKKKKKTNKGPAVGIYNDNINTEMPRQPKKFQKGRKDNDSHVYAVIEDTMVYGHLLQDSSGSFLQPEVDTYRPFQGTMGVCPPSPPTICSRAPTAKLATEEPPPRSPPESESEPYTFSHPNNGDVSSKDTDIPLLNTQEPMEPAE

[2] = target: T1, human CUB domain-containing protein 1 (CDCP1), expressed by cells (human); assay: flow cytometry of TKCC05 cells [right panel]
[3] = target: T1, human CUB domain-containing protein 1 (CDCP1), expressed by cells (human); assay: flow cytometry, Atto-550 labelled antibody 10 ng/ml, 1 h at 4 C
[4] = target: T1, human CUB domain-containing protein 1 (CDCP1), expressed by cells (human); assay: flow cytometry, Atto-550 labelled antibody 10 ng/ml, 1 h at 4 °C, 100,000 cells [B]

Measured: binding

B1: human/mouse chimeric 10D7 antibody (antibody, human IgG1, kappa, V domains shown)
VH: EVQLQQFGAELVKPGASVKISCKASGYSFSDFNIEWLKQSHGKSLEWIGDINPNYDSTNYNQKFKGRATLTVDKSSSTAYMEVRSLTSEDTAVYYCARLGYGYAMDYWGQGTSVTVSS
VL: IVMTQSPQSMSMSVGERVTLSCKASENVGAYVSWFQQKPDQSPKLLILAASNRYTGVPARFIGSGSATDFTLTISSVQAEDLADYHCGQSYTYPYTFGGGTKLEIKR
binds: [1] | [2] | [3] | [4]
